Source: article PMC7412702
No constants are given. Whether binding was seen depends on the method and setting. In cells and extracts the contact can be indirect. Some entries that bind do so weakly or less than the wild type. Sequences can lack the tags named with a protein.

Target: T1, HA-tagged wild-type human ZP1 (human), P60852
T1 chain: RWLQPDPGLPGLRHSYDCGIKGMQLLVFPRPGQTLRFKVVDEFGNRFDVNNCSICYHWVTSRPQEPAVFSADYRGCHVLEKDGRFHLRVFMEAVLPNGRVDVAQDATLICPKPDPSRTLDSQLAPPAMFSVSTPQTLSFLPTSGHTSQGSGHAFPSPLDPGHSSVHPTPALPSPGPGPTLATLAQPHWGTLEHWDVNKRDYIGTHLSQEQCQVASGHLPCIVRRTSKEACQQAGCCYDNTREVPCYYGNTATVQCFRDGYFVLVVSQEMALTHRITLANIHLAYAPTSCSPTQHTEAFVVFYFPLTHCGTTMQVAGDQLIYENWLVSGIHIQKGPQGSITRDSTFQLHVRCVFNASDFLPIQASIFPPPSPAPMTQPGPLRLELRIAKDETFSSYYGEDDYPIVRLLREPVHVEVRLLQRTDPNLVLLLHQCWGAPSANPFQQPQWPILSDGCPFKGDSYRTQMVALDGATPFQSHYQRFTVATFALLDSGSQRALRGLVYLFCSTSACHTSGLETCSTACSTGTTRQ
Test: co-IP; HeLa cells co-transfected with HA-ZP1 (WT, or WT with R109H), FLAG-ZP2 or MYC-ZP3; lysate, anti-HA antibody on Protein A/G magnetic beads overnight at 4°C, six washes with lysis buffer, Western blot
Details: remark: other sources report otherwise

B1: MYC-tagged human wild-type ZP3, P21754-1 23-350 (protein)
chain: QPLWLLQGGASHPETSVQPVLVECQEATLMVMVSKDLFGTGKLIRAADLTLGPEACEPLVSMDTEDVVRFEVGLHECGNSMQVTDDALVYSTFLLHDPRPVGNLSIVRTNRAEIPIECRYPRQGNVSSQAILPTWLPFRTTVFSEEKLTFSLRLMEENWNAEKRSPTFHLGDAAHLQAEIHTGSHVPLRLFVDHCVATPTPDQNASPYHTIVDFHGCLVDGLTDASSAFKVPRPGPDTLQFTVDVFHFANDSRNMIYITCHLKVTLAEQDPDELNKACSFSKPSNSWFPVEGSADICQCCNKGDCGTPSHSRRQPHVMSQWSRSASRN
binding: binds
